US5861254
The exact form of at least one protein or probe is not confirmed.

Legend:
[1] = target: T1, L-selectin-IgG1 Fc fusion (LS-Rg) (Homo sapiens) (UniProt P14151); test: binding assay; settings: 2'-F pyrimidines; CITED from WO96/40703; LF1613 from bead SELEX against LsRg; purified recombinant protein
T1 sequence: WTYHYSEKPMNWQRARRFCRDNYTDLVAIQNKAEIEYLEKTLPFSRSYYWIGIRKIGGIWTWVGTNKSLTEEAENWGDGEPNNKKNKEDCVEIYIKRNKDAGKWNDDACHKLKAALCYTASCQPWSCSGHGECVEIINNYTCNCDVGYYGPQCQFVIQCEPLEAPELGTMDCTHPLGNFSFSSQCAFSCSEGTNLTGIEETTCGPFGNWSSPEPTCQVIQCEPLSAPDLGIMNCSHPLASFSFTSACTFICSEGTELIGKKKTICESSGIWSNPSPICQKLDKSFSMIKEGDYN

[2] = target: T1, L-selectin-IgG1 Fc fusion (LS-Rg) (Homo sapiens); test: SPR; settings: 2'-F pyrimidines; SHMCK buffer (1 mM Ca, 1 mM Mg) 0.005% P20; ka 1.0e5, kd 2.8e-3; rebinding affects kd; purified recombinant protein

## GGGAGGACGAUGCGGUGCUAUUCUUAAGCGGCGUGUUUUUCAAGCCAAUAUCAUCAGACGACUCGCCCGA [LF1613]
[1]
  Kd: 0.1 nM
[2]
  Kd: 28 nM
